Measured values from PubChem BioAssay AID330 (DTP/NCI, 2004).
The list does not hold the whole screen: it is rich in T/C values a quarter to a half above the control, in often repeated tests (any T/C) and in doses without a T/C. Further doses and runs are listed elsewhere. T/C is the treated group as % of the vehicle group. Some doses have a count of surviving animals in place of a T/C: the source holds a T/C of zero for them, seemingly a mark for toxic or unscored doses. Some doses without a T/C left all or most animals alive at the check, yet need not have been tolerated: the source hardly ever lists a survival T/C far under the control, and the zero likely stands for such cases as well. Survivors were counted at the toxicity check, usually on the fifth day, unless a day is given; later deaths do not show. Schedules are NCI's codes, taken here to give the interval after Q, in days (D) or hours (H), and the number of doses after X. Some doses were run more than once; the results are listed from low to high. Some molecules as drawn cover several salts, stereoisomers or complexes of the source; a dose is that of the sample tested. For survival time, this PubChem deposit counts one and a half times the control or more as active, and values a quarter to a half above the control carry no call in these data; other NCI protocols may use other cut-offs. Some T/C values are followed by the survivors on the day toxicity was checked, most often the fifth; where none is given, no animal had died by that day.

Tested on: P388 leukemia ip, CD2F1 mice, survival T/C
Test: NCI In Vivo Anticancer Drug Screen. Data for tumor model P388 Leukemia (intraperitoneal) in CD2F1 (CDF1) mice
Conditions: T/C endpoint: median survival time, higher T/C = longer survival
[1] = dose: 200.0 mg/kg/injection, schedule: Q01DX009 (ip), vehicle: Klucel (hydroxypropylcellulose) (HPC)
[2] = dose: 60.0 mg/kg/injection, schedule: Q01DX005 (ip), vehicle: saline with Tween-80
[3] = dose: 120.0 mg/kg/injection, schedule: Q01DX005 (ip), vehicle: saline with Tween-80
[4] = dose: 240.0 mg/kg/injection, schedule: Q01DX005 (ip), vehicle: saline with Tween-80
[5] = dose: 25.0 mg/kg/injection, schedule: Q01DX009 (ip), vehicle: saline
[6] = dose: 50.0 mg/kg/injection, schedule: Q01DX009 (ip), vehicle: saline
[7] = dose: 400.0 mg/kg/injection, schedule: Q04DX003 (ip), vehicle: saline with Tween-80
[8] = dose: 100.0 mg/kg/injection, schedule: Q01DX009 (ip), vehicle: other
[9] = dose: 200.0 mg/kg/injection, schedule: Q01DX009 (ip), vehicle: other
[10] = dose: 50.0 mg/kg/injection, schedule: Q01DX009 (ip), vehicle: other

In the case of COc1ccc2c(c1OC(C)=O)-c1cc(O)cc3c1C(C2)N(C(=O)CN(CCCl)CCCl)CC3 (stereo not drawn), the T/C (dose: 3.12 mg/kg/injection, schedule: Q04DX003 (ip), vehicle: saline) is reported as 125 % of control, the T/C (dose: 3.13 mg/kg/injection, schedule: Q04DX003 (ip), vehicle: distilled water + Tween-80) is reported as 126 % of control and the T/C (dose: 6.25 mg/kg/injection, schedule: Q04DX003 (ip), vehicle: DMSO) is reported as 143 % of control. For the same molecule, the T/C (dose: 6.25 mg/kg/injection, schedule: Q04DX003 (ip), vehicle: distilled water + Tween-80) was 134 % of control, the T/C (dose: 6.25 mg/kg/injection, schedule: Q04DX003 (ip), vehicle: saline) was 131 % of control and the T/C (dose: 12.5 mg/kg/injection, schedule: Q04DX003 (ip), vehicle: DMSO) was 142 % of control. For the same molecule, the T/C (dose: 12.5 mg/kg/injection, schedule: Q04DX003 (ip), vehicle: distilled water + Tween-80) was 136 % of control, the T/C (dose: 12.5 mg/kg/injection, schedule: Q04DX003 (ip), vehicle: saline) was 140 % of control and the T/C (dose: 25.0 mg/kg/injection, schedule: Q04DX003 (ip), vehicle: DMSO) was 144 % of control. The T/C (dose: 25.0 mg/kg/injection, schedule: Q04DX003 (ip), vehicle: saline) was 149 % of control, the T/C (dose: 50.0 mg/kg/injection, schedule: Q04DX003 (ip), vehicle: DMSO) was 130 % of control and the survivor count (dose: 50.0 mg/kg/injection, schedule: Q04DX003 (ip), vehicle: distilled water + Tween-80) was 6 of 6. The survivor count (dose: 100.0 mg/kg/injection, schedule: Q04DX003 (ip), vehicle: DMSO) was 3 of 6 and the survivor count (dose: 100.0 mg/kg/injection, schedule: Q04DX003 (ip), vehicle: distilled water + Tween-80) was 1 of 6.
CCCCN(CCCC)C(Cl)=Nc1ccccc1 was tested, and the T/C (dose: 50.0 mg/kg/injection, schedule: Q01DX009 (ip), vehicle: Klucel (hydroxypropylcellulose) (HPC)) was 131 % of control [5 of 6 alive], the survivor count (dose: 100.0 mg/kg/injection, schedule: Q01DX009 (ip), vehicle: Klucel (hydroxypropylcellulose) (HPC)) was 1 of 6 and the survivor count [1] was 2 of 6.
In the case of CCCCCCCCSC(=O)n1cc(F)c(=O)[nH]c1=O, the T/C [2] is reported as 137 % of control, the T/C [3] is reported as 132 % of control and the survivor count [3] is reported as 6 of 6. For the same molecule, the survivor count [4] was 3 of 6.
For S=C(NCNC(=S)c1ccncc1)c1ccncc1, the T/C (dose: 200.0 mg/kg/injection, schedule: Q01DX005 (ip), vehicle: saline with Tween-80) was 133 % of control and the T/C (dose: 400.0 mg/kg/injection, schedule: Q01DX005 (ip), vehicle: saline with Tween-80) was 135 % of control.
O=C1C2=C(C(=O)c3cnccc31)C1C=CC2CC1 (stereo not drawn) was tested, and the survivor count (dose: 100.0 mg/kg/injection, schedule: Q01DX005 (ip), vehicle: DMSO) was 0 of 6, the survivor count (dose: 200.0 mg/kg/injection, schedule: Q01DX005 (ip), vehicle: DMSO) was 0 of 4 and 0 of 6 and the survivor count (dose: 400.0 mg/kg/injection, schedule: Q01DX005 (ip), vehicle: DMSO) was 0 of 6.
N#Cc1c(-c2ccc(Cl)cc2)cn2c1[nH]c(=O)c1c3c(sc12)CCCC3 was tested, and the survivor count [4] was 6 of 6.
CNC(=O)OCc1c(COC(=O)NC)c(C)n(-c2ccc(Cl)c(Cl)c2)c1C was tested, and the T/C [5] was 148 % of control and the survivor count [6] was 5 of 6 and 6 of 6.
With Cc1csc(NC(=S)NC(=O)c2ccccc2)n1 the survivor count [7] was 6 of 6.
For CN(C)CC1CC1C1(C)c2ccccc2Sc2ccccc21 (stereo not drawn), the survivor count [1] was 0 of 6.
C=Cc1cc[n+](CC(=O)c2ccccc2)cc1 was tested, and the survivor count [5] was 3 of 6 and the survivor count [6] was 0 of 6.
Nc1nc(N)c2cc(NCc3ccccc3Cl)ccc2n1 was tested, and the survivor count (dose: 16.5 mg/kg/injection, schedule: Q01DX009 (ip), vehicle: saline with Tween-80) was 5 of 6, the survivor count (dose: 25.0 mg/kg/injection, schedule: Q01DX009 (ip), vehicle: saline with Tween-80) was 1 of 6 and 5 of 6 and the survivor count (dose: 37.5 mg/kg/injection, schedule: Q01DX009 (ip), vehicle: saline with Tween-80) was 0 of 6 and 3 of 6. The survivor count (dose: 100.0 mg/kg/injection, schedule: Q01DX001 (ip), vehicle: saline with Tween-80) was 1 of 6, the survivor count (dose: 200.0 mg/kg/injection, schedule: Q01DX001 (ip), vehicle: saline with Tween-80) was 0 of 6 and the survivor count (dose: 400.0 mg/kg/injection, schedule: Q01DX001 (ip), vehicle: saline with Tween-80) was 0 of 6.
In the case of CN(Cc1cnc2nc(N)nc(N)c2n1)c1ccc(C(=O)NC(CCC(=O)OCc2c(Cl)cccc2Cl)C(=O)OCc2c(Cl)cccc2Cl)cc1 (stereo not drawn), the T/C (dose: 1.87 mg/kg/injection, schedule: Q01DX005 (ip), vehicle: saline with Tween-80) is reported as 139 % of control, the survivor count [2] is reported as 6 of 6 and the survivor count [3] is reported as 6 of 6. For the same molecule, the survivor count [4] was 2 of 6.
Cc1c(/C=C/c2oc3ccc(C(=N)N)cc3c2C)oc2ccc(C(=N)N)cc12 was tested, and the T/C (dose: 200.0 mg/kg/injection, schedule: Q04DX002 (ip), vehicle: saline) was 137 % of control and the T/C (dose: 400.0 mg/kg/injection, schedule: Q04DX002 (ip), vehicle: saline) was 127 % of control.
O=c1nc(Oc2ccc(Cl)cc2Cl)oc2cc(Cl)ccc12 was tested, and the survivor count [4] was 5 of 6.
With CCOC(=O)/C=C/CI the T/C [8] was 126 % of control and the survivor count [9] was 0 of 6, 1 of 6, 4 of 6.
For COc1ccc(NC(=O)C2C(=O)C(=O)N(c3ccc(OC)cc3)C2=O)cc1 (stereo not drawn), the survivor count (dose: 400.0 mg/kg/injection, schedule: Q04DX002 (ip), vehicle: saline with Tween-80) was 2 of 6.
With CC(C)C(=O)CCCN1C(=O)c2ccccc2C1=O the survivor count (dose: 200.0 mg/kg/injection, schedule: Q01DX009 (ip), vehicle: distilled water + Tween-80) was 2 of 6.
For COC(=O)c1cc(Cl)ccc1NCC(N)c1ccccc1 (stereo not drawn), the survivor count [3] was 6 of 6 and the survivor count [4] was 2 of 6.
For O=[N+]([O-])c1cccc(N/N=C\c2c(Cl)[nH]c3ccccc23)c1, the survivor count (dose: 200.0 mg/kg/injection, schedule: Q01DX001 (ip), vehicle: Klucel (hydroxypropylcellulose) (HPC)) was 6 of 6 and the survivor count (dose: 400.0 mg/kg/injection, schedule: Q01DX001 (ip), vehicle: Klucel (hydroxypropylcellulose) (HPC)) was 6 of 6.
For COc1cccc2c1C(=O)c1c(O)c3c(c(O)c1C2=O)CC(O)(C(C)=O)CC3OC1CC(NC(=O)CN(C)C)C(O)C(C)O1 (stereo not drawn), the T/C (dose: 1.0 mg/kg/injection, schedule: Q01DX009 (ip), vehicle: water) was 127 % of control, the T/C (dose: 2.0 mg/kg/injection, schedule: Q01DX009 (ip), vehicle: water) was 140 % of control and the T/C (dose: 4.0 mg/kg/injection, schedule: Q01DX009 (ip), vehicle: water) was 146 % of control. The T/C (dose: 8.0 mg/kg/injection, schedule: Q01DX009 (ip), vehicle: water) was 149 % of control.
With O=C(CC(=NCC(O)CN=C(CC(=O)c1ccccc1)c1ccccc1)c1ccccc1)c1ccccc1.[Ni] (stereo not drawn) the survivor count (dose: 100.0 mg/kg/injection, schedule: Q04DX003 (ip), vehicle: saline with Tween-80) was 6 of 6 and the survivor count [7] was 5 of 6.
CCCNC(=S)Nc1ccc(F)cc1F was tested, and the T/C [10] was 91 % of control, the survivor count [10] was 2 of 6, 3 of 6, 6 of 6 and the survivor count [8] was 0 of 6. For the same molecule, the survivor count [9] was 0 of 6.
In the case of O=C(NCCNC(=O)c1cc(Cl)cc(Cl)c1O)c1cc(Cl)cc(Cl)c1O, the survivor count [3] is reported as 6 of 6 and the survivor count [4] is reported as 6 of 6.
C=C1C(=O)C2=CC1CCC(=O)C1(C)CCC(OC(C)=O)C(C)(C)C1CC2O (stereo not drawn) was tested, and the survivor count (dose: 60.0 mg/kg/injection, schedule: Q01DX009 (ip), vehicle: Klucel (hydroxypropylcellulose) (HPC)) was 0 of 6 and the survivor count (dose: 120.0 mg/kg/injection, schedule: Q01DX009 (ip), vehicle: Klucel (hydroxypropylcellulose) (HPC)) was 0 of 6.
